The source gives many values for each of these; only a part stands here.

The subject of this experiment is class I antigen presentation gene expression in MCC cell lines. Nature of the experiment: RNA-seq / DESeq2 differential expression of MCC cell lines at baseline and after IFN-γ stimulation. It counts as cell-based, human. Particulars: 11 MCC cell lines, baseline vs IFNγ, negative LFC = upregulation in IFNγ-treated. Here is the method: FIG. 2A comprises RNA-seq heatmaps of class I antigen presentation gene expression in MCC lines and controls.
FIG. 2B is a volcano plot of differentially expressed genes (genes below FDR cutoff 0.01 are shown in yellow) between baseline and IFN-γ-treated MCC cell lines. Differential expression analysis was performed using DESeq2, and negative LFC indicates increased expression in +IFN-γ samples. IFN genes are highlighted in red.
RNA samples were first assessed for quality using the Agilent Bioanalyzer (DV200 metric). One hundred ng of RNA were used as the input for first strand cDNA synthesis using Superscript III reverse transcriptase and Illumina's TruSeq RNA Access Sample Prep Kit. Synthesis of the second strand of cDNA was followed by indexed adapter ligation with UMI (unique molecular index) adaptors. Subsequent PCR amplification enriched for adapted fragments. Amplified libraries were quantified, normalized, pooled, and hybridized with exome targeting oligos. Following hybridization, bead clean-up, elution and PCR was performed to prepare library pools for sequencing on Illumina flowcell lanes. Transcriptomes were sequenced to a coverage of at least 50 million reads in pairs.
Raw fastq files for fibroblast and keratinocyte control lines were downloaded from SRA using R Bioconductor package SRAdb (Mayakonda et al. (2018) supra; Zhu et al. (2013) BMC Bioinformatics 14 (1): 1-4) using accession codes SRP126422 (4 replicates from control samples ‘NN’) and SRP131347 (6 replicates with condition: control and genotype: control). These fastq files, along with those for the mkl1 and waga cell lines, were aligned using STAR version 2.7.3a (Dobin et al. (2013) Bioinformatics 29 (1): 15-21), using index genome reference file downloaded from ftp.ebi.ac.uk/pub/databases/gencode/Gencode_human/release_19/GRCh37.p13.genome.fa.gz, transcript annotation file downloaded from data.broadinstitute.org/snowman/hg19/star/gencode.v19.annotation.gtf, and with the following options: --twopassMode Basic, --outSAMstrandField intronMotif, --alignIntronMax 1000000, --alignMatesGapMax 1000000, --sjdbScore 2, --outSAMtype BAM Unsorted, --outSAMattributes NH HI NM MD AS XS, --outFilterType BySJout, --outSAMunmapped Within, --genomeLoad NoSharedMemory, --outFilterScoreMinOverLread 0, --outFilterMatchNminOverLread 0, --outFilterMismatchNmax 999, and outFilterMultimapNmax 20. Duplicates were marked with picard MarkDuplicates version 2.22.0-SNAPSHOT.
RNA-sequencing bam files for MCC tumor and cell line samples were downloaded from the Broad Genomics Firecloud/Terra platform using the Google Cloud Storage command line tool gsutil version 4.5 (github.com/GoogleCloudPlatform/gsutil/).
Gene counts were obtained from bam files using featureCounts version 2.0.0 (doi.org/10.1093/bioinformatics/btt656). Very lowly expressed genes with average count across samples less than 1 were excluded from analysis. Between-sample distance metrics were computed using the Euclidean distance on the vectors of variance-stabilized counts obtained from the vst function in the DESeq2 R Bioconductor package ([…]; Love et al. (2014) Genome Biology 15 (12): 550).
Differential expression analysis was carried out between (1) viral positive and viral negative samples (adjusting for cell line or tumor as a covariate), (2) cell line and tumor samples (adjusting for viral status as a covariate), and (3) IFNγ plus and minus samples (adjusting for viral status as a covariate) using the negative binomial GLM Wald test of DESeq2, where significance was assessed using the p-values adjusted for multiple comparisons under default settings. To account for potential global gene expression differences among sample groups, RUVg (Risso et al. (2014) […] 32 (9): 896-902) was used to estimate latent factors of unwanted variation from the list of housekeeping genes downloaded from www.tau.ac.il/˜elieis/HKG/HK_genes.txt. […]

B1: IFN-y: type II interferon, recombinant human, used to treat MCC cells (protein, UniProt P01579 24-161, looked up)
Interferon gamma: QDPYVKEAENLKKYFNAGHSDVADNGTLFLGILKNWKEESDRKIMQSQIVSFYFKLFKNFKDDQSIQKSVETIKEDMNVKFFNSNKKKRDDFEKLTNYSVTDLNVQRKAIHELIQVMAELSPAAKTGKRKRSQMLFRG
Molecule B1 had a log2FoldChange (APOBEC3B ENSG00000179750.11) of −3.14; a log2FoldChange (APOBEC3D ENSG00000243811.3) of −4.463; a log2FoldChange (APOBEC3F ENSG00000128394.12) of −4.302; a log2FoldChange (APOBEC3G ENSG00000239713.3) of −5.079; a log2FoldChange (APOL1 ENSG00000100342.16) of −10.56; a log2FoldChange (APOL2 ENSG00000128335.9) of −4.687. Besides, the log2FoldChange is given as −8.094 (APOL3 ENSG00000128284.15); −5.675 (APOL4 ENSG00000100336.13); −9.041 (APOL6 ENSG00000221963.5); −6.265 (CLIC2 ENSG00000155962.8); −0.7658 (CXorf38 ENSG00000185753.8); −4.425 (ENSG00000225008.1 (symbol NA)). In addition, the log2FoldChange is −1.645 (ENSG00000231010.1 (symbol NA)), −0.7463 (FAM122C ENSG00000156500.10), −2.334 (SERHL2 ENSG00000183569.13) and −2.158 (SERTM2 ENSG00000260802.1).

The values above are taken from patent US20230203485A1, “METHODS FOR MODULATING MHC-I EXPRESSION AND IMMUNOTHERAPY USES THEREOF” (Dana-Farber Cancer Institute, Inc., priority 2020, published 2023).
